The assay addresses signal transducer and activator of transcription 3 (human (endogenous in HN6 and Cal27)) (UniProt P40763). The experiment in a line: co-IP; lysate of HN6 or Cal27 cells transfected with lincRNA-p21 plasmid or vector for 48 h, incubated with anti-STAT3 monoclonal antibody at 4 °C overnight, then Protein A/G agarose beads for 4 h; immunoblot for Myc and Cyclin D1; endogenous proteins. (In general: A western blot detects proteins with antibodies after separation by electrophoresis.)

Protein sequences, listed by entry. Tags and fused reporters are not part of them.
UniProt P40763: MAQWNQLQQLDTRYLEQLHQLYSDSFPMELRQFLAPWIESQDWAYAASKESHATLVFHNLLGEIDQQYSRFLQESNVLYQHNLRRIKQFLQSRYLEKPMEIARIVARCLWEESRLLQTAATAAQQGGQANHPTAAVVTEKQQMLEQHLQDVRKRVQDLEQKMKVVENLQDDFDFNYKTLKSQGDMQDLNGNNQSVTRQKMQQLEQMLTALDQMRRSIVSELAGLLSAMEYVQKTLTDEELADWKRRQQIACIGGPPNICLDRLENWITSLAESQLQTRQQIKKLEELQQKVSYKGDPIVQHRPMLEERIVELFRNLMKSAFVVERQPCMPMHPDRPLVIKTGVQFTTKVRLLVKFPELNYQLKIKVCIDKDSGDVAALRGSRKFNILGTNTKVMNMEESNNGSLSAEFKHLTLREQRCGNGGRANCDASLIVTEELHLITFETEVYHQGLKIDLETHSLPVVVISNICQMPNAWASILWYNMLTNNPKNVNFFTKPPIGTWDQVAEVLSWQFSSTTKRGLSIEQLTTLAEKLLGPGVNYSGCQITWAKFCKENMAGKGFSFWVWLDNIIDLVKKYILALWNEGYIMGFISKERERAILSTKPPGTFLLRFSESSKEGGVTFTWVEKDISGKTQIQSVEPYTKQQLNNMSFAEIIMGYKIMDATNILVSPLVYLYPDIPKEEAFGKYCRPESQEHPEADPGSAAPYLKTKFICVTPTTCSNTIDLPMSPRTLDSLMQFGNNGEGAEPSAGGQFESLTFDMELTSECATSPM
UniProt P24385: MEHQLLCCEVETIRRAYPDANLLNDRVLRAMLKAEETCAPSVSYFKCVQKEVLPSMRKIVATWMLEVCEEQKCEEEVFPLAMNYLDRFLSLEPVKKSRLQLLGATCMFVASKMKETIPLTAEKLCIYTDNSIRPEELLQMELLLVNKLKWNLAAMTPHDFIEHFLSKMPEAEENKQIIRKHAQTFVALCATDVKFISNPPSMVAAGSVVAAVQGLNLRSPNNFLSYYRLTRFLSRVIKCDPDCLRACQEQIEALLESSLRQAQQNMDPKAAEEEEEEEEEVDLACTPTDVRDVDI
UniProt P01106: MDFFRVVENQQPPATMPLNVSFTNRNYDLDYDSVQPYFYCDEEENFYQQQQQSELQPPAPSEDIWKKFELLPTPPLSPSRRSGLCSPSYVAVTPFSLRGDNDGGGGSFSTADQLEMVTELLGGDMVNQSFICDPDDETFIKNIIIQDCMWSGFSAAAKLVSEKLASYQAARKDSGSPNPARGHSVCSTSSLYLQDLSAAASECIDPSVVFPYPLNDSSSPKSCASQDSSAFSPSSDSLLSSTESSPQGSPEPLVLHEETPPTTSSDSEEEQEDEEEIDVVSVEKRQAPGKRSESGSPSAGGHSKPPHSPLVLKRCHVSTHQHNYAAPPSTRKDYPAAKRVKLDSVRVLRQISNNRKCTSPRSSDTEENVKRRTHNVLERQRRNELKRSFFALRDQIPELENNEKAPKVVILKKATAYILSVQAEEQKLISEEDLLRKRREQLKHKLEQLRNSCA

In article PMC6410525 one finds binding data, which are given here for two substances.

These are yes or no findings as the source states them, for the method shown. Binding seen in cells or lysates may run through a third protein. Some results given as binding are weak or reduced against the parent protein; the word gives no strength.

With Cyclin D1 (from UniProt P24385 1-295), the binding result is listed as “binds”.

On to Myc (from UniProt P01106 1-454), for which the binding result was “binds”.
